In publication PMC5360445, “SMOC can act as both an antagonist and an expander of BMP signaling” (eLife, 2017) one finds binding data, which are given here for one molecule.

In experiment [1] the target is XSMOC-1EC (EC domain only of XSMOC-1) (Xenopus). The experiment is described as follows: pull-down; heparin Sepharose (0.3 μl) saturated with XSMOC-1 or XSMOC-1EC (6 μg), incubated with BMP2 (4 μg) in PBS (physiological ionic strength); unbound and eluted fractions on SDS-PAGE, Coomassie staining; both purified.
Experiment [2] concerns the target recombinant mature XSMOC-1 (Xenopus SMOC-1) (Xenopus). The experiment is described as above.

Results are given in words; binding and its absence hold for the method and conditions named.

B1: human BMP2 (mature BMP2, A284-R396) (ligand, UniProt P12643 284-396)
chain: AKHKQRKRLKSSCKRHPLYVDFSDVGWNDWIVAPPGYHAFYCHGECPFPLADHLNSTNHAIVQTLVNSVNSKIPKACCVPTELSAISMLYLDENEKVVLKNYQDMVVEGCGCR
For B1, the binding result in experiment [1] and in experiment [2] was “no binding (tested: BMP2 (4 μg))” in each case.
